# Reference: paper PMC5605756
# The chains behind the UniProt entries cited, without tags or fusion partners. Where a name states a change or a piece, a line headed by the entry shows the natural chain unless it says otherwise.
# UniProt Q00175: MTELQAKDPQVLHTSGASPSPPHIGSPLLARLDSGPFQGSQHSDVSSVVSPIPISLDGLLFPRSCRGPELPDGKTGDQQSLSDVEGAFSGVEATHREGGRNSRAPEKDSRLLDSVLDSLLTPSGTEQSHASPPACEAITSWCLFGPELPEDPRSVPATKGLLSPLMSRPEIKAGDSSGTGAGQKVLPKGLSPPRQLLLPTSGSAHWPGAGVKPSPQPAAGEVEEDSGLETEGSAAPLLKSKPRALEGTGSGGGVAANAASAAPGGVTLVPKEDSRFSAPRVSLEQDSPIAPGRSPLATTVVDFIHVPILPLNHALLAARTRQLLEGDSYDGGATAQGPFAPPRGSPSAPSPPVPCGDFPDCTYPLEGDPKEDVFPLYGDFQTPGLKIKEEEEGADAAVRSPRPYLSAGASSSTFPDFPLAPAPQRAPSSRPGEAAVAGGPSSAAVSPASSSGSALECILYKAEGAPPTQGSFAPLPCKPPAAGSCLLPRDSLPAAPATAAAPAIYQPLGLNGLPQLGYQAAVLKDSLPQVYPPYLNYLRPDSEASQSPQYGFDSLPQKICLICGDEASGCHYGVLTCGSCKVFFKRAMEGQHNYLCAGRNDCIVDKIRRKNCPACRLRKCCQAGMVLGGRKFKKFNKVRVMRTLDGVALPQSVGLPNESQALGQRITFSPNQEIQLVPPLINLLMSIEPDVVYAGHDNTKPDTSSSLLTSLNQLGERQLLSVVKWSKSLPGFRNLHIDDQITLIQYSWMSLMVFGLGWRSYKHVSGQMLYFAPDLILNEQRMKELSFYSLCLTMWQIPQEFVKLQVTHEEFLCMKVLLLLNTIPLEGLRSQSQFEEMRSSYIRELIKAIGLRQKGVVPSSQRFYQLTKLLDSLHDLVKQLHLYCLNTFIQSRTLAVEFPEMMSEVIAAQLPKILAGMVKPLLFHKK
# UniProt P02088: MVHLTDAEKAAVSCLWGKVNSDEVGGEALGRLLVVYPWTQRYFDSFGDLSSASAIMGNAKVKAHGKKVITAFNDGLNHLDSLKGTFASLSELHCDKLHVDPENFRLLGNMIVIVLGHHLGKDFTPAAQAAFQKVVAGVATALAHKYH
# UniProt P63101: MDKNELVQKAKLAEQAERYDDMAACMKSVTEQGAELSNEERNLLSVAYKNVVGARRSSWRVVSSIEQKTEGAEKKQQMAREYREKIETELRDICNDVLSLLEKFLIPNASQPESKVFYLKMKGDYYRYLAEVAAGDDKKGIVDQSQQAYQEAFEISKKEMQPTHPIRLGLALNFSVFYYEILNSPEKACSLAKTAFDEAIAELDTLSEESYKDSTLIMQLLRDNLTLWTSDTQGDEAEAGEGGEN
# UniProt Q8JZP2: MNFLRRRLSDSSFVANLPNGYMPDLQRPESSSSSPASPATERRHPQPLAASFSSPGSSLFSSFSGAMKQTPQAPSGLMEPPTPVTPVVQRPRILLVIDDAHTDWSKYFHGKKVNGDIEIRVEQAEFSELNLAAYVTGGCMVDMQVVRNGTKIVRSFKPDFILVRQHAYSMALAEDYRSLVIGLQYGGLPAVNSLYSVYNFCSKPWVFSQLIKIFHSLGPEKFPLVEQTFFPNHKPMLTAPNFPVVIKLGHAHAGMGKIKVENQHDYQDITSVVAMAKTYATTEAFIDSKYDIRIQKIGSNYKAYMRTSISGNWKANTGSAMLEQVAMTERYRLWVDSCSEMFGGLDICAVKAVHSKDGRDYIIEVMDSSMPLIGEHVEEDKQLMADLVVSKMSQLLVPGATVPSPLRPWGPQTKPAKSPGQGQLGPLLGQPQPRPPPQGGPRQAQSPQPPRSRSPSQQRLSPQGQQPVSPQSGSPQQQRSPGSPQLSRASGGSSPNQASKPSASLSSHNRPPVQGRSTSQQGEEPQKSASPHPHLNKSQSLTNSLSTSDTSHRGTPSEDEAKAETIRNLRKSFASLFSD
# UniProt Q922F4: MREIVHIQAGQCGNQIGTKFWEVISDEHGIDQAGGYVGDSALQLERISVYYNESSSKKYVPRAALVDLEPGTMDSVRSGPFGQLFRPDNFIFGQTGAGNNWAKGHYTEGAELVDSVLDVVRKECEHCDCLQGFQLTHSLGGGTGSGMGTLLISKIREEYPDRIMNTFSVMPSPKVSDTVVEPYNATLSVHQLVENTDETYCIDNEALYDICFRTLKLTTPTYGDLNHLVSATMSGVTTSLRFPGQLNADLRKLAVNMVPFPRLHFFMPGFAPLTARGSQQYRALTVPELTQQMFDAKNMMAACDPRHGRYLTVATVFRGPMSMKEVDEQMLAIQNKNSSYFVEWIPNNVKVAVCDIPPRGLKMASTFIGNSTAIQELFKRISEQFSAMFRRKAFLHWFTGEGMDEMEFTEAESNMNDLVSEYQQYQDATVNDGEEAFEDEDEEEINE
# UniProt Q04447: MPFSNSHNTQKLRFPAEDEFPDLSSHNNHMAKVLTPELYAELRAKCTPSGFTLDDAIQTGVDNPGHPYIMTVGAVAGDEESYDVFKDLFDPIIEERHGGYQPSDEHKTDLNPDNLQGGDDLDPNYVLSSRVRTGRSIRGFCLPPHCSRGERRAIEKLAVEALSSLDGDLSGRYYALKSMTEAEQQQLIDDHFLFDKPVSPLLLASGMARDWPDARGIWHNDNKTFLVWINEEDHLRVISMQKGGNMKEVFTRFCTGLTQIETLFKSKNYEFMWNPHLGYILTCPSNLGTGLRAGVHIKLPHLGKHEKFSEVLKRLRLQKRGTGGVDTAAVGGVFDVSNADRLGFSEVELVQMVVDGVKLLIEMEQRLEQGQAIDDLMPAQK
# UniProt O88685: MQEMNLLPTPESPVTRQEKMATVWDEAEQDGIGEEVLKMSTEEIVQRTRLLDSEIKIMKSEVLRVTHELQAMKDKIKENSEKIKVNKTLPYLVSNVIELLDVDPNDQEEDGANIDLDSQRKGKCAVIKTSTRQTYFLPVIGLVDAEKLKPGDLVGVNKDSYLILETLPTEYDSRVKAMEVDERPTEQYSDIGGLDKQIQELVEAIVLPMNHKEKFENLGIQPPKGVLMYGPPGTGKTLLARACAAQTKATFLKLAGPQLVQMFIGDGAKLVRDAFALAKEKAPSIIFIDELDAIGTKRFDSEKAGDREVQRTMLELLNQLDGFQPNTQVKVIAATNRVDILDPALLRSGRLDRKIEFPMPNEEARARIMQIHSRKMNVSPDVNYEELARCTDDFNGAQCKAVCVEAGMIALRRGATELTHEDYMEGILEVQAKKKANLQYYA
# UniProt Q64332: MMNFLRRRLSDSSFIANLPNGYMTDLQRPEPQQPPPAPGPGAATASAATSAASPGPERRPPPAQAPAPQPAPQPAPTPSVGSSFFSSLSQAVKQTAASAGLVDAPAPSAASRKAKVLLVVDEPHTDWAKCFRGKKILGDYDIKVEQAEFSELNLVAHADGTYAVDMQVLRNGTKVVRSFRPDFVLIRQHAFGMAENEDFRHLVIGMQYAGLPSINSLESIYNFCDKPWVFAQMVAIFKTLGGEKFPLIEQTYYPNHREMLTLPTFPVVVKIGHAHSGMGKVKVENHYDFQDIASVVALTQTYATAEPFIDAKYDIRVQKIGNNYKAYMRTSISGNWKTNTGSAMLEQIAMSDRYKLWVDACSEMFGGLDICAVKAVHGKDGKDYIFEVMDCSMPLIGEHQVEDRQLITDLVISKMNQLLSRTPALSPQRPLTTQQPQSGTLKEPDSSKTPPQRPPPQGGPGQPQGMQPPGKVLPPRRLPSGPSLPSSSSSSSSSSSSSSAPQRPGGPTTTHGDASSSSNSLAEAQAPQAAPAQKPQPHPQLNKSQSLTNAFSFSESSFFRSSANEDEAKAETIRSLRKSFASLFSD
# UniProt P99024: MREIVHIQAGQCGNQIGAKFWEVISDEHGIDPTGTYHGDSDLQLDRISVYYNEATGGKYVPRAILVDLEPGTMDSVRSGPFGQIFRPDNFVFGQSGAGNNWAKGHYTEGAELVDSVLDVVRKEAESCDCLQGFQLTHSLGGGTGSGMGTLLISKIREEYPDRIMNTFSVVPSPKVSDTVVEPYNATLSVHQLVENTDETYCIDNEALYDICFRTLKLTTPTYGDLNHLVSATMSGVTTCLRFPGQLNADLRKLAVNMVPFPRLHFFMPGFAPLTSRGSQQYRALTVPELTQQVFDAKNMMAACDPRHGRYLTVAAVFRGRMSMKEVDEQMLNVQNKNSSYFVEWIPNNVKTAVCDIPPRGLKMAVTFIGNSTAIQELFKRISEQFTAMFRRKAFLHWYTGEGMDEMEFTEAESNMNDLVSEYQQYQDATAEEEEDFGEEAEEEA
# UniProt Q8VDM6: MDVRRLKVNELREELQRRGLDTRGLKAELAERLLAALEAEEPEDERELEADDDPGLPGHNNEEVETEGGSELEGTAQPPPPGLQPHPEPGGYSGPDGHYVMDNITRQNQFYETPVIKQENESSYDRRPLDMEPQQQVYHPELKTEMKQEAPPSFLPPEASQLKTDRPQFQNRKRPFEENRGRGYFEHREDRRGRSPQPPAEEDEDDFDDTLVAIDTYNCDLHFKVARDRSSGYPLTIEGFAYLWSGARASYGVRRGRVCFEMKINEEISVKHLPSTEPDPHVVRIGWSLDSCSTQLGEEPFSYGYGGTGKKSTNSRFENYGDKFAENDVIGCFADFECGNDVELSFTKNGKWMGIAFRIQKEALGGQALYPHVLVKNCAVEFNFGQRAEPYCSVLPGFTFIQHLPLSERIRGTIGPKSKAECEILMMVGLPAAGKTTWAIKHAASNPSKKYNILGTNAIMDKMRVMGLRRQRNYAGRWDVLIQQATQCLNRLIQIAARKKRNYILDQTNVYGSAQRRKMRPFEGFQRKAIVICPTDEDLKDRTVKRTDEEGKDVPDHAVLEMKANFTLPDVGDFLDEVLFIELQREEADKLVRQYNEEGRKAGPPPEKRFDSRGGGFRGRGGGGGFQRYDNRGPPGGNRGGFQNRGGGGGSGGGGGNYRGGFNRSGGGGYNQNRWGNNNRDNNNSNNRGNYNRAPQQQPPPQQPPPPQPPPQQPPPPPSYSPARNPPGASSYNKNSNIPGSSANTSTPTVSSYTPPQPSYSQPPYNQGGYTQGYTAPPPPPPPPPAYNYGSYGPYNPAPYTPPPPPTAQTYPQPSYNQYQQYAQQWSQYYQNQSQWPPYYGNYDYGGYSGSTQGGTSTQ
# UniProt P68372: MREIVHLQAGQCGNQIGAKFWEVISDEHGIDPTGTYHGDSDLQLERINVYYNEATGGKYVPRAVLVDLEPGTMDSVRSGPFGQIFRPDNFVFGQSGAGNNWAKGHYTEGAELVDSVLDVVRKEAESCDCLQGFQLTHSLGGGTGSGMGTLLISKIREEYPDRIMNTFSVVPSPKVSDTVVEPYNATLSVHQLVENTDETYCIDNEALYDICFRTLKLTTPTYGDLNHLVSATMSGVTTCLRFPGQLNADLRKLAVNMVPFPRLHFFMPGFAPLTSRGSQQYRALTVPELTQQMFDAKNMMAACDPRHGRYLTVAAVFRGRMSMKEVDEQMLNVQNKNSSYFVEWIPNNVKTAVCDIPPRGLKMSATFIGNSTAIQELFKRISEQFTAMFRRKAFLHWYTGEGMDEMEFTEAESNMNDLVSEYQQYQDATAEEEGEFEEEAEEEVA
# UniProt Q8BGT8: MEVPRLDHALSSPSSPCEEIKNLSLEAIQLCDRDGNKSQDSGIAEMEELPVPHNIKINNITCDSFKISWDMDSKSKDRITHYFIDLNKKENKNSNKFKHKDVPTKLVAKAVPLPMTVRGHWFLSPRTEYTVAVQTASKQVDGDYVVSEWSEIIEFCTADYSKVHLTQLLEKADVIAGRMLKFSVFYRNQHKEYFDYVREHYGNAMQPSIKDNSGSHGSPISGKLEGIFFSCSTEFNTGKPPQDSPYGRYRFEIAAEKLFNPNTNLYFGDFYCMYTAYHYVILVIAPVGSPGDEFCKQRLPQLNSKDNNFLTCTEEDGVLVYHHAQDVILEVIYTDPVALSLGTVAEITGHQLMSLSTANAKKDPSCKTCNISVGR
# UniProt P63085: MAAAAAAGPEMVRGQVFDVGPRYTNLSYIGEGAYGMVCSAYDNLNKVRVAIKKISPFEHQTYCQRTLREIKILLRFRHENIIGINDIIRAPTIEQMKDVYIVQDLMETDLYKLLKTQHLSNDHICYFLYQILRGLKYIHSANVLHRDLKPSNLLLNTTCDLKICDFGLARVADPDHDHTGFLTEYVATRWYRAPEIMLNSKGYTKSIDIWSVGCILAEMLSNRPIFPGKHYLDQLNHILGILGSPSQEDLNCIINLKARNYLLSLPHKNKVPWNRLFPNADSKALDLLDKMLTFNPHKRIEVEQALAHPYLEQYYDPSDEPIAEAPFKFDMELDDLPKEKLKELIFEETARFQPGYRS
# Target: glutathione S-transferase-tagged mouse progestin receptor PR-A (mouse)
# Assay: affinity purification with mass spectrometry; GST-PRA or GST-PRB bound to R5020, immobilised on glutathione Sepharose 4B, incubated 1 h at 4°C with pooled female mouse hypothalamic homogenate; washed with TG-NaCl (20 mM Tris-HCl, 10% glycerol, 100 mM NaCl, pH 8.0); eluted with 250 mM glutathione; nano-LC-MS/MS, label-free; a hit has a ratio R5020/no ligand ≥2 and p < 0.05; only the target purified
row,binding,Molecule
1,no binding,"Heterogeneous nuclear ribonucleoprotein D-like (protein, UniProt Q9Z130 1-301) MEDMNEYSNIEEFAEGSKINASKNQQDDGKMFIGGLSWDTSKKDLTEYLSRFGEVVDCTIKTDPVTGRSRGFGFVLFKDAASVDKVLELKEHKLDGKLIDPKRAKALKGKEPPKKVFVGGLSPDTSEEQIKEYFGAFGEIENIELPMDTKTNERRGFCFITYTDEEPVKKLLESRYHQIGSGKCEIKVAQPKEVYRQQQQQQKGGRGAAAGGRGGARGRGRGQGQNWNQGFNNYYDQGYGNYNSAYGGDQNYSGYGGYDYTGYNYGNYGYGQGYADYSGQQSTYGKASRGGGNHQNNYQPY"
2,no binding,"Septin-5 (protein, UniProt Q9Z2Q6 1-369) MSTGLRYKSKLATPEDKQDIDKQYVGFATLPNQVHRKSVKKGFDFTLMVAGESGLGKSTLVHSLFLTDLYKDRKLLSAEERINQTVEILKHTVDIEEKGVKLKLTIVDTPGFGDAVNNSECWKPITDYVDQQFEQYFRDESGLNRKNIQDNRVHCCLYFISPFGHGLRPVDVGFMKALHEKVNIVPLIAKADCLVPSEIRKLKDRIREEIDKFGIHVYQFPECDSDEDEDFKQQDRELKESAPFAVIGSNTVVEAKGQRVRGRLYPWGIVEVENQAHCDFVKLRNMLIRTHMHDLKDVTCDVHYENYRAHCIQQMTSKLTQDSRMESPIPILPLPTPDAETEKLIRMKDEELRRMQEMLQKMKQQMQDQ"
3,binds,"Synaptogyrin-III (protein, UniProt Q8R191 1-229) MEGASFGAGRAGAAFDPVSFARRPQTLLRVVSWVFSIAVFGPIVNEGYVNSDSGPELRCVFNGNAGACRFGVVLGLGAFIACVAFLLLDVRFQQISSVRDRRRAVLLDLGFSGVWSFLWFVGFCFLTNQWQRTTPGPGTAQAGDAARAAIAFSFFSILSWVALTVKALQRFRLGTDMSLFATDQLGTGAAQAYPGYPVGSGVEGTETYQSPPFTETLDTSSKGYQVPAY"
4,binds,"Desmoglein-4 (protein, UniProt Q7TMD7 50-1041) EWIKFAAACREGEDNSKRNPIARIRSDCEVSQRITYRISGAGIDRPPYGVFTINPRTGEINITSVVDREITPLFLIHCRALNSRGEDLERPLELRVKVMDVNDNPPVFTQNVYTANIEENSDANALVVKLSATDADEDNHLNSKIAYKIISQEPAGAPMFMVNRYTGEVRTMSNFLDREQHSMYNLLVRGSDRDGATDGLSSECDCRIKILDVNDNFPILEKTSYSASIEENCLSSELIRLQAIDLDEEGTDNWLAQYSILSGNDGNWFEIQTDPKTNEGILKVVKMLDYEQEPNIYLSIGVRNQAEFHHSVASQFQMHSTPVRIQVVNVREGPTFSPSSMTFSLRGGMRGASLMNYVLGTYTAIDMDTGNPATNVRYVIGHDAGSWLKVDSRTGEIQFSREFDMKSKYITDGIYAAQILAIDDGSGRTATGTICIEIPDANDYCPVIYAESRSVCTHASSVRIYVNDHSFGSPFTFCVVDESPDIANIWDIRSINGTSAILMTEQTLSPGPYQIPILVKDSHNRACELPQTVLLDACFCDDHHVCLHSSTTGIYTGDITWVTDDMYGTVTDDGVRQSNVGLGPAGIGMIILGLLLLLLSPLLLLMCCCKRRQPEGLGTRFAPVPEGGEGVMQPWRIEGAHPEDRDVSNICVPMTASNTQDRIDSSEIYTNTYAGGGTVEGGVSGVELNTGVGTATGMVAAGATGTLRKRSSTIGTLREYQDTGMNMAFLDSYFSEKAYAYADEDEGRPANDCLLIYDHEGAGSPVGSIGCCSWIVDDLDESYIETLDPKFRTLAEICLDTEIEPFPSHQACIPISTDLPLLGPNYFVNESSGMTLSEAEFQAEMAAASEPMIHGDIIVTETYTTSDPCVQPTTIVFDSQIPPNVVVTETVMAPVYDVQGNICVPAEIANTHNVYYAERVVASPGIPDMGNSNISDACIGPVMSGGILVGPEIQVTQMMSPDIHISQTTGSTSPMTSQHRVTRYSNMHYSRQ"

# Target: glutathione S-transferase-tagged mouse progestin receptor PR-B (mouse) (UniProt Q00175)
# Assay: as above
row,binding,Molecule
1,binds,Synapsin-I (from UniProt O88935 1-706)
2,no binding,Hemoglobin subunit β-1 (from UniProt P02088 1-147)
3,binds,14-3-3 protein ζ/δ (from UniProt P63101 1-245)
4,binds,Synapsin-III (from UniProt Q8JZP2 1-579)
5,binds,Tubulin β-6 chain (from UniProt Q922F4 1-447)
6,no binding,Creatine kinase B-type (from UniProt Q04447 1-381) (enzyme)
7,binds,26S protease regulatory subunit 6A (from UniProt O88685 1-442)
8,binds,"Heterogeneous nuclear ribonucleoprotein D-like (protein, UniProt Q9Z130 1-301) MEDMNEYSNIEEFAEGSKINASKNQQDDGKMFIGGLSWDTSKKDLTEYLSRFGEVVDCTIKTDPVTGRSRGFGFVLFKDAASVDKVLELKEHKLDGKLIDPKRAKALKGKEPPKKVFVGGLSPDTSEEQIKEYFGAFGEIENIELPMDTKTNERRGFCFITYTDEEPVKKLLESRYHQIGSGKCEIKVAQPKEVYRQQQQQQKGGRGAAAGGRGGARGRGRGQGQNWNQGFNNYYDQGYGNYNSAYGGDQNYSGYGGYDYTGYNYGNYGYGQGYADYSGQQSTYGKASRGGGNHQNNYQPY"
9,binds,"Septin-5 (protein, UniProt Q9Z2Q6 1-369) MSTGLRYKSKLATPEDKQDIDKQYVGFATLPNQVHRKSVKKGFDFTLMVAGESGLGKSTLVHSLFLTDLYKDRKLLSAEERINQTVEILKHTVDIEEKGVKLKLTIVDTPGFGDAVNNSECWKPITDYVDQQFEQYFRDESGLNRKNIQDNRVHCCLYFISPFGHGLRPVDVGFMKALHEKVNIVPLIAKADCLVPSEIRKLKDRIREEIDKFGIHVYQFPECDSDEDEDFKQQDRELKESAPFAVIGSNTVVEAKGQRVRGRLYPWGIVEVENQAHCDFVKLRNMLIRTHMHDLKDVTCDVHYENYRAHCIQQMTSKLTQDSRMESPIPILPLPTPDAETEKLIRMKDEELRRMQEMLQKMKQQMQDQ"
10,no binding,"Synaptogyrin-III (protein, UniProt Q8R191 1-229) MEGASFGAGRAGAAFDPVSFARRPQTLLRVVSWVFSIAVFGPIVNEGYVNSDSGPELRCVFNGNAGACRFGVVLGLGAFIACVAFLLLDVRFQQISSVRDRRRAVLLDLGFSGVWSFLWFVGFCFLTNQWQRTTPGPGTAQAGDAARAAIAFSFFSILSWVALTVKALQRFRLGTDMSLFATDQLGTGAAQAYPGYPVGSGVEGTETYQSPPFTETLDTSSKGYQVPAY"
11,no binding,"Desmoglein-4 (protein, UniProt Q7TMD7 50-1041) EWIKFAAACREGEDNSKRNPIARIRSDCEVSQRITYRISGAGIDRPPYGVFTINPRTGEINITSVVDREITPLFLIHCRALNSRGEDLERPLELRVKVMDVNDNPPVFTQNVYTANIEENSDANALVVKLSATDADEDNHLNSKIAYKIISQEPAGAPMFMVNRYTGEVRTMSNFLDREQHSMYNLLVRGSDRDGATDGLSSECDCRIKILDVNDNFPILEKTSYSASIEENCLSSELIRLQAIDLDEEGTDNWLAQYSILSGNDGNWFEIQTDPKTNEGILKVVKMLDYEQEPNIYLSIGVRNQAEFHHSVASQFQMHSTPVRIQVVNVREGPTFSPSSMTFSLRGGMRGASLMNYVLGTYTAIDMDTGNPATNVRYVIGHDAGSWLKVDSRTGEIQFSREFDMKSKYITDGIYAAQILAIDDGSGRTATGTICIEIPDANDYCPVIYAESRSVCTHASSVRIYVNDHSFGSPFTFCVVDESPDIANIWDIRSINGTSAILMTEQTLSPGPYQIPILVKDSHNRACELPQTVLLDACFCDDHHVCLHSSTTGIYTGDITWVTDDMYGTVTDDGVRQSNVGLGPAGIGMIILGLLLLLLSPLLLLMCCCKRRQPEGLGTRFAPVPEGGEGVMQPWRIEGAHPEDRDVSNICVPMTASNTQDRIDSSEIYTNTYAGGGTVEGGVSGVELNTGVGTATGMVAAGATGTLRKRSSTIGTLREYQDTGMNMAFLDSYFSEKAYAYADEDEGRPANDCLLIYDHEGAGSPVGSIGCCSWIVDDLDESYIETLDPKFRTLAEICLDTEIEPFPSHQACIPISTDLPLLGPNYFVNESSGMTLSEAEFQAEMAAASEPMIHGDIIVTETYTTSDPCVQPTTIVFDSQIPPNVVVTETVMAPVYDVQGNICVPAEIANTHNVYYAERVVASPGIPDMGNSNISDACIGPVMSGGILVGPEIQVTQMMSPDIHISQTTGSTSPMTSQHRVTRYSNMHYSRQ"

# Second part, the molecule before the results:
row,Molecule,binding
1,Tubulin β-4A chain (from UniProt Q9D6F9 1-444),no binding
2,Synapsin-II (from UniProt Q64332 1-586),binds
3,Tubulin β-5 chain (from UniProt P99024 1-444),binds
4,Heterogeneous nuclear ribonucleoprotein U-like protein 1 (from UniProt Q8VDM6 1-859),binds
5,β-Actin-like protein 2 (from UniProt Q8BFZ3 1-376),binds
6,Tubulin β-4B chain (from UniProt P68372 1-445),no binding
7,Phytanoyl-CoA hydroxylase-interacting protein-like (from UniProt Q8BGT8 1-375),no binding
8,Mitogen-activated protein kinase 1 (from UniProt P63085 1-358) (enzyme),binds
9,"Rab GDP dissociation inhibitor β (protein, UniProt Q61598 1-445) MNEEYDVIVLGTGLTECILSGIMSVNGKKVLHMDQNPYYGGESASITPLEDLYKRFKLPGQPPASMGRGRDWNVDLIPKFLMANGQLVKMLLFTEVTRYMDFKVIEGSFVYKGGKIYKVPSTEAEALASSLMGLFEKRRFRKFLVYVANFDEKDPRTFEGVDPKKTSMRDVYKKFDLGQDVIDFTGHSLALYRTDDYLDQPCCETINRIKLYSESLARYGKSPYLYPLYGLGELPQGFARLSAIYGGTYMLNKPIEEIIVQNGKVVGVKSEGEIARCKQLICDPSYVKDRVEKVGQVIRVICILSHPIKNTNDANSCQIIIPQNQVNRKSDIYVCMISFAHNVAAQGKYIAIVSTTVETKEPEKEIRPALELLEPIEQKFVSISDLFVPKDLGTDSQIFISRAYDATTHFETTCDDIKDIYKRMTGSEFDFEEMKRKKNDIYGED",binds

# These are yes or no findings as the source states them, for the method shown. Binding seen in cells or lysates may run through a third protein. These calls come from enrichment with a bait or labelling near it, and not all partners need be listed. No binding means not detected with the bait.
